Some of the results follow. Residues, ends and D or L forms follow the SMILES beside them. *: point of attachment. Cbz = O=C(OCc1ccccc1)*
Assays:
Assay in all cases: log2 fold change, soluble protein after heating vs DMSO (PISA); higher = thermal stabilisation; K562 cells, 10 uM, 30 min; active = over 0.2 and 3.5 SD of the protein, either way, in both replicates (recomputed)
[1] = compound: C1=CC(=C(C=C1Cl)C2=NC3=NC=CN=C3C(=N2)NC4=CC=NC=C4)F
Outline: (§1)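 K562 cells at 2×10^6 cells/mL were treated with 10 μM compound for 30 min. Aliquots were heated for 3 min across 48°C-58°C, pooled, and extracted in PBS with 0.5% NP-40 at 4°C; soluble protein was the supernatant after 21,000xg for 90 min. Soluble protein was quantified by TMTpro 16plex LC-MS/MS with channel sums equalised, and reported as log2 fold change in thermal stability against DMSO controls, with values from duplicates.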

Protein sequences, listed by entry. Tags and fused reporters are not part of them. Lines headed by an entry give the natural chain unless they say otherwise; changes in a name come on top.
UniProt Q9NPB8: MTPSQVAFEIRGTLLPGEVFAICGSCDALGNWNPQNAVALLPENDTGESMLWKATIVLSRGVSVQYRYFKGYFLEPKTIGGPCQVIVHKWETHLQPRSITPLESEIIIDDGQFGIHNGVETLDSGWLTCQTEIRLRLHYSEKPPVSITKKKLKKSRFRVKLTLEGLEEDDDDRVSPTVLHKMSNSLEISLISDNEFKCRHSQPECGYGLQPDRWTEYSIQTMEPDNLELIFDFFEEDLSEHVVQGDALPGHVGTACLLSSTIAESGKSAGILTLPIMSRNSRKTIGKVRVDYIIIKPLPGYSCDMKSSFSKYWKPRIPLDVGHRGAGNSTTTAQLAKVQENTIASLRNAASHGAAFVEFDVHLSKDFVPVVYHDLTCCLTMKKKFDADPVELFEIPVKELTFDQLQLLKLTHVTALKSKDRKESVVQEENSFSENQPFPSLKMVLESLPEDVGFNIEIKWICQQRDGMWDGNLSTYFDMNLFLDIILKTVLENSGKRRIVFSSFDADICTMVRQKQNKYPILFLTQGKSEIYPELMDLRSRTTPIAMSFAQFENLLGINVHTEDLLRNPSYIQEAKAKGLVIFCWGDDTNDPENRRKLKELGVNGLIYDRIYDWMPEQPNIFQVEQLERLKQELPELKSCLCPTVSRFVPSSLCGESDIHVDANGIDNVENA
UniProt O75420: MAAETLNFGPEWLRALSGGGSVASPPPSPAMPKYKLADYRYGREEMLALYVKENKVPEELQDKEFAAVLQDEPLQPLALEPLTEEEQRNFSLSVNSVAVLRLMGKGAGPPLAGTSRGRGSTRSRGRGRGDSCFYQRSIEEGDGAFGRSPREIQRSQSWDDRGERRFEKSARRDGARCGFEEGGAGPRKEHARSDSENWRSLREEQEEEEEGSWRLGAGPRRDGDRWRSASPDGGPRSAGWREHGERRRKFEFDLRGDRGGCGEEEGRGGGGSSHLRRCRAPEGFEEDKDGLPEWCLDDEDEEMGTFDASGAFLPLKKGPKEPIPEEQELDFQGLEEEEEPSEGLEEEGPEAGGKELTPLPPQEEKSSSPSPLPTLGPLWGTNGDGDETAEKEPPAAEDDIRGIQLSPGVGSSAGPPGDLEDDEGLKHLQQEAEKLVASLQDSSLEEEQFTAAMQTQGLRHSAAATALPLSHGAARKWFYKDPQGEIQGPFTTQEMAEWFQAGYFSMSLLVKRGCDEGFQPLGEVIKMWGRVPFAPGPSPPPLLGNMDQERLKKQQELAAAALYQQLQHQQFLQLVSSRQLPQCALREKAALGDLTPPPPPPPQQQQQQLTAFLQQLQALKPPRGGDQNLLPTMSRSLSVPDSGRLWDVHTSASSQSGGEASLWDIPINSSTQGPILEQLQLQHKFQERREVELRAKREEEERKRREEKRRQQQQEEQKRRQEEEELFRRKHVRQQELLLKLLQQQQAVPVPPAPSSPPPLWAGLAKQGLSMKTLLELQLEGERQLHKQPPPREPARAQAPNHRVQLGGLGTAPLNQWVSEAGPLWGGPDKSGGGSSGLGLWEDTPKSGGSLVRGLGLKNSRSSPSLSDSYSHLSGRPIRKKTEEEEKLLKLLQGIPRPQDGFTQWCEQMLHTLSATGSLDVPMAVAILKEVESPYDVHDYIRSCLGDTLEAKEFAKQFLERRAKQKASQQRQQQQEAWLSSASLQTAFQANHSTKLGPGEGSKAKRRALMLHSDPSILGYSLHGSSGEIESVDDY
UniProt P17302, whole entry, looked up: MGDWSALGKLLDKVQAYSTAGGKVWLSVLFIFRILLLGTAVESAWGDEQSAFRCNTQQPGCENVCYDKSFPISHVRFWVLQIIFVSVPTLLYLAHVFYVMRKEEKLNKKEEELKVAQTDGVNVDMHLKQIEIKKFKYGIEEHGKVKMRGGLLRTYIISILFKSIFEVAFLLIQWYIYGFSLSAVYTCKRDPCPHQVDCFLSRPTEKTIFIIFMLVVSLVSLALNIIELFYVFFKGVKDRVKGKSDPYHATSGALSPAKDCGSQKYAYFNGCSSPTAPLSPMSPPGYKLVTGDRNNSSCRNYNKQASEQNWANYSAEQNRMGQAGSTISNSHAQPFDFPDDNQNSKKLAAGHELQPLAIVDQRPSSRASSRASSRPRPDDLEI
UniProt Q14956: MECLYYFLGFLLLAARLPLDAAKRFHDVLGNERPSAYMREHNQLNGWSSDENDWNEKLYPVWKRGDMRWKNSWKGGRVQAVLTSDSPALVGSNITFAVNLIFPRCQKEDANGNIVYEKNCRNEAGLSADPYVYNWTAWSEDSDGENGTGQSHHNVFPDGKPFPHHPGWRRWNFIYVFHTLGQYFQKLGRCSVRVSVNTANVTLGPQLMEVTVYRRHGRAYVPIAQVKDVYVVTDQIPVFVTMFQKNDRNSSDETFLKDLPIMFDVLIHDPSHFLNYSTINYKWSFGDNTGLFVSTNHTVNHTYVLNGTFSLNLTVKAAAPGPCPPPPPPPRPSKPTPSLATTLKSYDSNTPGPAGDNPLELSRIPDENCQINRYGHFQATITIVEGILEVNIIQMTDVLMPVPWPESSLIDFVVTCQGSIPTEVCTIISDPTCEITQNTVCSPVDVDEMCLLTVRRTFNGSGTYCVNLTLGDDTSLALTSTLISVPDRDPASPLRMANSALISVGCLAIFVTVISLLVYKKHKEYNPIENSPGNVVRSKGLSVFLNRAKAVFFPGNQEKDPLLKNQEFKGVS
UniProt Q9NU53: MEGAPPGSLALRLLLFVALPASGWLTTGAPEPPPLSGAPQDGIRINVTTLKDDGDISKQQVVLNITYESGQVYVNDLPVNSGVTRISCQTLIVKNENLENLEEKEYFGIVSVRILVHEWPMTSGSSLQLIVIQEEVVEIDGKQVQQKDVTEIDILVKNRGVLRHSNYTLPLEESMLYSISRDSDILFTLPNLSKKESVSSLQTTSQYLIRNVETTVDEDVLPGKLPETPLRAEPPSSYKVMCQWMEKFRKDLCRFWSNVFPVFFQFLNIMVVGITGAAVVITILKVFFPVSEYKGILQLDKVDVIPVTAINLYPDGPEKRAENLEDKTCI
UniProt Q9H4A5: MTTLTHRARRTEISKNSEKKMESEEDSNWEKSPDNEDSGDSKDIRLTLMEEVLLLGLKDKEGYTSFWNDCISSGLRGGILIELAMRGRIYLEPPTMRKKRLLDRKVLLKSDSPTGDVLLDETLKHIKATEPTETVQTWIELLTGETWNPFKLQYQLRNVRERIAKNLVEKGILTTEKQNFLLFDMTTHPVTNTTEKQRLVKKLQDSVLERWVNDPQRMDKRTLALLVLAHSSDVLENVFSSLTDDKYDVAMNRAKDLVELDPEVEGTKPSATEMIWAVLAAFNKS
UniProt Q15743: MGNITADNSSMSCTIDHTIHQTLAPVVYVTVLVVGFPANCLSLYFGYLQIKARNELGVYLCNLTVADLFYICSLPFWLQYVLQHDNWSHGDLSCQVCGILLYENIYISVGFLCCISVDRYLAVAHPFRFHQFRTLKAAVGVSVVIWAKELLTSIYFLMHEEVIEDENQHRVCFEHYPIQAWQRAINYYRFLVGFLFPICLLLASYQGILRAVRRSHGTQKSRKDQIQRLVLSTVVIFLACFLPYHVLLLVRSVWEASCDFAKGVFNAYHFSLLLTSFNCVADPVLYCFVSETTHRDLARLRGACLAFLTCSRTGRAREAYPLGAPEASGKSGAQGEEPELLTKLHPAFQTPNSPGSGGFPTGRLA
UniProt Q9P107: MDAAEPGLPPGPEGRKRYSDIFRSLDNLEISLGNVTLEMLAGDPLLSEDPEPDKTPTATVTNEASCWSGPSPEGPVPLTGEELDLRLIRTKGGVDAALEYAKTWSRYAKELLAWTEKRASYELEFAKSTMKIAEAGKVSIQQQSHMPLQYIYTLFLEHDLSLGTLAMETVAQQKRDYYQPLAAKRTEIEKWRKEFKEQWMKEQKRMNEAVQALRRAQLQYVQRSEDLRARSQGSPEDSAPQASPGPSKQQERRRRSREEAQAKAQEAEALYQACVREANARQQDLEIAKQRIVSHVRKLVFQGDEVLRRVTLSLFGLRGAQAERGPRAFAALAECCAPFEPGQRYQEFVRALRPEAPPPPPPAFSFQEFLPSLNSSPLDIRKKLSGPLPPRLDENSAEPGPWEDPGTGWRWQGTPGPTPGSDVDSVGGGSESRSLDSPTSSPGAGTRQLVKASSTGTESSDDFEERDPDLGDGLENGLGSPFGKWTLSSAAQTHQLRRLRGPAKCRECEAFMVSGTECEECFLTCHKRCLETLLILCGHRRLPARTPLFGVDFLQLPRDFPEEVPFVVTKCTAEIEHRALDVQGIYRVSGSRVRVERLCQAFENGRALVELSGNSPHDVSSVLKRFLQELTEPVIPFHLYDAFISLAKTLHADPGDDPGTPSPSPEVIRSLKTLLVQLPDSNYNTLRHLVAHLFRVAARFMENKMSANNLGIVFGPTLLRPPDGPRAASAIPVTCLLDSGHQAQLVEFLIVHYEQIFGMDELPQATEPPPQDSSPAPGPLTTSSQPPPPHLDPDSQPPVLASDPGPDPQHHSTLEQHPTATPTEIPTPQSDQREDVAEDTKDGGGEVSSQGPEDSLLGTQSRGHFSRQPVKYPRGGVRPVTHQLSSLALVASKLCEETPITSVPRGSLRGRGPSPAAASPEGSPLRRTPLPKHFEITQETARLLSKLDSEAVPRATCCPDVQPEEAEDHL
UniProt Q14687: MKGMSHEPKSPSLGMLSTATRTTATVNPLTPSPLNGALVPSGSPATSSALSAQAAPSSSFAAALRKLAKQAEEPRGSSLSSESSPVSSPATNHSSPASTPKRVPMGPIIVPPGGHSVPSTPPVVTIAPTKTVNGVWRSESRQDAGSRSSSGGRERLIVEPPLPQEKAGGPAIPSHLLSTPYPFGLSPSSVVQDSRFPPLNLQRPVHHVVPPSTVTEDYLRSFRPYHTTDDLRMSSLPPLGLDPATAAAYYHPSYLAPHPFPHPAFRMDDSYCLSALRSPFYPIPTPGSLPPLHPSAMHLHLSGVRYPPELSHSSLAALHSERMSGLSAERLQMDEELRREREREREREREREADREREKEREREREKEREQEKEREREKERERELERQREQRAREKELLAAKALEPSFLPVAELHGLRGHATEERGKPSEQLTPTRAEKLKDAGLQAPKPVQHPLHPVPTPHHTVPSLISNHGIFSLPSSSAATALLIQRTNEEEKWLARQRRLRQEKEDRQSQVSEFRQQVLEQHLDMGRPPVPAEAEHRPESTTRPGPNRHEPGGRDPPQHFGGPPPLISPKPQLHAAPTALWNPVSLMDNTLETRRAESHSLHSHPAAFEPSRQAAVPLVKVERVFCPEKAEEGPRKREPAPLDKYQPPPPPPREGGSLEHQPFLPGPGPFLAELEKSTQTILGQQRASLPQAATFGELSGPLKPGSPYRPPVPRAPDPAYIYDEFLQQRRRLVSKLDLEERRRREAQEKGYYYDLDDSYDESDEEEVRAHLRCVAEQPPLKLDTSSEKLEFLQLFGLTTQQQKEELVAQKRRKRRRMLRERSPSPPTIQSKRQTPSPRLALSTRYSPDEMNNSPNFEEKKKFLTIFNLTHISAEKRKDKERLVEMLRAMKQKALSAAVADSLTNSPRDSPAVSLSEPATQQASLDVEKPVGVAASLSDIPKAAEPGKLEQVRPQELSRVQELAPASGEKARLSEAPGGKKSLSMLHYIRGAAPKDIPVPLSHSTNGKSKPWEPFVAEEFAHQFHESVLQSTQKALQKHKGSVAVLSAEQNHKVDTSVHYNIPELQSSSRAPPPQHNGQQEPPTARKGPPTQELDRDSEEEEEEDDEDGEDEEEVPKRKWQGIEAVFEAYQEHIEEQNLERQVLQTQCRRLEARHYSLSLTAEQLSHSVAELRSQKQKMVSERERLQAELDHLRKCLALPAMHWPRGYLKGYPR
UniProt A6NDN3: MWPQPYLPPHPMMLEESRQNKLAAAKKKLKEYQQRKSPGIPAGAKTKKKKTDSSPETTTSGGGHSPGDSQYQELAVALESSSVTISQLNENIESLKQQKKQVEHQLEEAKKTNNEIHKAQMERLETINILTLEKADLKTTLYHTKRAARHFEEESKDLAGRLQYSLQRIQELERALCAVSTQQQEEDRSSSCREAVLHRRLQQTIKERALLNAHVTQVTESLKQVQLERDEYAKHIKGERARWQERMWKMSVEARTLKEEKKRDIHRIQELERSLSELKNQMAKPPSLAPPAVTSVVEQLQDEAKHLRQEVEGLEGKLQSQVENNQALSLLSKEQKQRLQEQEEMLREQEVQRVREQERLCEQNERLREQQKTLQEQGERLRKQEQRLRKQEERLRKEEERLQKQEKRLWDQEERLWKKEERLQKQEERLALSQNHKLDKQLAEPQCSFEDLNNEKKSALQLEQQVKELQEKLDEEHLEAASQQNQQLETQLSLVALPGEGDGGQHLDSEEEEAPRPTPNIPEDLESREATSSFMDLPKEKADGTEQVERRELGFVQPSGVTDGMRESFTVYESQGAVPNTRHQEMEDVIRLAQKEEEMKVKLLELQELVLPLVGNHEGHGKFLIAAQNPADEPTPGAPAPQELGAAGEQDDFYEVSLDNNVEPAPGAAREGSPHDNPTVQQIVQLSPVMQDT

[2] = compound: C1=CC=C(C=C1)C2=NC(=C(N2)C3=CC=NC=C3)C4=CC(=C(C=C4)Cl)O
Outline: as §1

[3] = compound: CC(C)(C)Cn1c(N)nc2ccc(-c3[nH]c(C(C)(C)C)nc3-c3ccc(F)cc3)nc21 [ralimetinib]
Outline: as §1

[4] = compound: CC(C)(O)CC(=O)NCCn1ccc2ncnc(Nc3ccc(Oc4cccc(C(F)(F)F)c4)c(Cl)c3)c21
Outline: as §1

[5] = compound: CC(C)C[C@@H](C=O)NC(=O)[C@H](CC(C)C)NC(=O)[C@H](CC(C)C)NC(=O)OCc1ccccc1
Outline: as §1

[6] = compound: C#Cc1cccc(Nc2ncnc3cc(OCCOC)c(OCCOC)cc23)c1 [erlotinib]
Outline: as §1

[7] = compound: C1=CC(=CC=C1C2=NC3=C(N2)C=C(C=C3)C(=O)N)OC4=CC=C(C=C4)Cl
Outline: as §1

[8] = compound: C1CCN(C1)C(=O)NC2=CC=CC(=C2)NC3=NC=C(C(=N3)NCCC4=CN=CN4)Br
Outline: as §1

[9] = compound: C1CN(CCC1(CC2=CC=C(C=C2)Cl)N)C3=NC=NC4=C3C=CN4
Outline: as §1

[10] = compound: CC(C)C1=C2N=C(C=C(N2N=C1)NCC3=CC=CC=C3)NCCCCCCN
Outline: as §1

[11] = compound: CC1=C(C2=C(C=C1)C(=O)C3=CC=CC=C3N2CCCN)C
Outline: as §1

[12] = compound: C/C(=N\NC(=O)C1=CC(=CC=C1)S(=O)(=O)N2CCOCC2)/C3=C(C=CC(=C3)Cl)O
Outline: as §1

[13] = compound: C1=CC2=C(C=CC(=C2)/C=C\3/C(=O)NC(=NCC4=CC=CS4)S3)N=C1
Outline: as §1

[14] = compound: C1=CC=C2C(=C1)C3=NNC4=CC=CC(=C43)C2=O
Outline: as §1

[15] = compound: CC(=O)c1cnc2ccc(-c3cc(Cl)c(O)c(Cl)c3)nc2c1N[C@H]1CC[C@H](CN(C)C)CC1
Outline: as §1

[16] = compound: C1COCCN1CCN2C3=CC=CC=C3N=C2NC(=O)C4=CC(=CC=C4)[N+](=O)[O-] [IRAK-1-4 Inhibitor I]
Outline: as §1

[17] = compound: CC(C)N(C[C@H]1O[C@@H](n2cnc3c(N)ncnc32)[C@H](O)[C@@H]1O)[C@H]1C[C@@H](CCc2nc3cc(C(C)(C)C)ccc3[nH]2)C1 [pinometostat]
Outline: as §1

[18] = compound: C1=CC2=NC=CN=C2C=C1/C=C/3\C(=O)NC(=O)S3
Outline: as §1

[19] = compound: C=CC(=O)N1CCC[C@@H](n2nc(-c3ccc(Oc4ccccc4)cc3)c3c(N)ncnc32)C1 [ibrutinib]
Outline: as §1

[20] = compound: CC1=C(C(CC(=O)N1)C2=CC=C(C=C2)C(F)(F)F)C(=O)NC3=C(C=C4C(=C3)C=NN4)F
Outline: as §1

Measured: log2 fold change

GPCPD1 (UniProt Q9NPB8)
inactive: [1] 0.098 | [2] 0.211 | [3] 0.066 | [4] -0.107 | [5] -0.184

GPATCH2L (UniProt Q9NWQ4)
inactive: [6] 0.558 | [7] 0.033 | [8] -0.134 | [9] -0.338 | [10] -0.39 | [11] -0.093

GOLGA1 (UniProt Q92805)
inactive: [6] 0.086 | [12] 0.236 | [7] -0.106 | [13] 0.145 | [2] 0.062 | [14] 0.048 | [15] -0.032 | [3] -0.044 | [10] -0.045 | [5] 0.054

GPT2 (UniProt Q8TD30)
inactive: [12] 0.118 | [13] 0.279 | [2] -0.106 | [14] -0.077 | [8] -0.069 | [9] -0.128 | [15] -0.18 | [3] -0.019 | [5] 0.079 | [11] -0.027

GIGYF1 (UniProt O75420)
inactive: [1] -0.052 | [2] -0.273 | [16] -0.028 | [3] 0.03 | [4] -0.117 | [5] 0.022 | [17] 0.091

GJA1 (UniProt P17302)
inactive: [18] -0.116 | [19] 0.103

GPAA1 (UniProt E9PLG8)
inactive: [12] 0.032 | [13] -0.009 | [18] 0.028 | [14] 0 | [8] 0.027 | [9] -0.099 | [16] -0.208 | [19] -0.023 | [15] -0.073 | [17] -0.044 | [20] -0.094 | [11] -0.086

GPNMB (UniProt Q14956)
inactive: [6] 0.286 | [1] -0.281 | [7] -0.046 | [4] 0 | [10] 0.108

GOLIM4 (UniProt F8W785)
inactive: [1] 0.007 | [18] -0.02 | [8] -0.078 | [9] 0.028 | [16] 0.087 | [19] -0.024 | [4] 0.06 | [17] 0.019 | [20] -0.056 | [11] 0.003

GINM1 (UniProt Q9NU53)
inactive: [6] -0.153 | [1] 0.073 | [7] 0.023 | [18] -0.02 | [19] 0.127 | [4] 0.007 | [10] 0.09 | [20] 0.165

GK5 (UniProt Q6ZS86)
inactive: [12] -0.316 | [1] -0.03 | [13] -0.184 | [18] 0.16 | [2] -0.089 | [14] -0.023 | [8] 0.132 | [9] 0.12 | [16] -0.051 | [19] -0.155 | [15] -0.043 | [3] -0.172 | [4] 0.091 | [5] 0.144 | [17] -0.055 | [11] 0.008

Retrieved one by one from the entries so far (2):
GPAA1 (UniProt E9PLG8)
inactive: [12] 0.032 | [13] -0.009 | [18] 0.028 | [14] 0 | [8] 0.027 | [9] -0.099 | [16] -0.208 | [19] -0.023 | [15] -0.073 | [17] -0.044 | [20] -0.094 | [11] -0.086

GPNMB (UniProt Q14956)
inactive: [6] 0.286 | [1] -0.281 | [7] -0.046 | [4] 0 | [10] 0.108

Continuation:

GOLPH3L (UniProt Q9H4A5)
inactive: [12] -0.114 | [1] -0.191 | [13] 0.076 | [14] -0.196 | [16] -0.294 | [15] 0.035 | [4] 0.013 | [17] 0.273

GPR68 (UniProt Q15743)
inactive: [12] 0.023 | [13] -0.048 | [2] -0.109 | [14] 0.047 | [16] -0.146 | [15] -0.135 | [3] -0.073 | [5] 0.141 | [17] 0.134

GMIP (UniProt Q9P107)
inactive: [6] -0.029 | [1] 0.006 | [7] -0.002 | [18] 0.041 | [2] -0.123 | [8] -0.15 | [9] 0.012 | [16] 0.084 | [19] 0.123 | [3] 0.067 | [4] -0.048 | [10] -0.215 | [5] 0.074 | [17] 0.058 | [20] -0.014 | [11] 0.023

GSE1 (UniProt Q14687)
inactive: [18] -0.269 | [2] -0.048 | [19] 0.057 | [3] -0.065 | [5] 0.003

GOSR1 (UniProt E9PCW1)
inactive: [6] 0.018 | [7] 0.173 | [18] 0.092 | [19] 0.039 | [10] -0.246

GINS2 (UniProt Q9Y248)
inactive: [6] 0.076 | [1] 0.083 | [7] -0.045 | [18] -0.008 | [2] 0.203 | [8] -0.089 | [9] -0.034 | [16] 0 | [19] -0.033 | [3] 0.024 | [4] -0.02 | [10] -0.081 | [5] -0.042 | [17] -0.067 | [11] 0.113

GOLGA6B (UniProt A6NDN3)
inactive: [6] -0.069 | [1] -0.054 | [7] 0.116 | [18] 0.036 | [16] -0.034 | [19] 0.013 | [4] 0.025 | [10] 0.165 | [17] -0.137

GLS2 (UniProt Q9UI32)
inactive: [12] -0.082 | [13] -0.002 | [14] 0.057 | [15] -0.148

From the supplement of paper PMC10849652
